This assay has as its target Flag-HDAC6 (histone deacetylase 6), expressed in 293T cells (human) (UniProt Q9UBN7). The assay is described as follows: co-IP.

By UniProt entry, the sequences of proteins in these tests, tags left out.
UniProt Q9UBN7: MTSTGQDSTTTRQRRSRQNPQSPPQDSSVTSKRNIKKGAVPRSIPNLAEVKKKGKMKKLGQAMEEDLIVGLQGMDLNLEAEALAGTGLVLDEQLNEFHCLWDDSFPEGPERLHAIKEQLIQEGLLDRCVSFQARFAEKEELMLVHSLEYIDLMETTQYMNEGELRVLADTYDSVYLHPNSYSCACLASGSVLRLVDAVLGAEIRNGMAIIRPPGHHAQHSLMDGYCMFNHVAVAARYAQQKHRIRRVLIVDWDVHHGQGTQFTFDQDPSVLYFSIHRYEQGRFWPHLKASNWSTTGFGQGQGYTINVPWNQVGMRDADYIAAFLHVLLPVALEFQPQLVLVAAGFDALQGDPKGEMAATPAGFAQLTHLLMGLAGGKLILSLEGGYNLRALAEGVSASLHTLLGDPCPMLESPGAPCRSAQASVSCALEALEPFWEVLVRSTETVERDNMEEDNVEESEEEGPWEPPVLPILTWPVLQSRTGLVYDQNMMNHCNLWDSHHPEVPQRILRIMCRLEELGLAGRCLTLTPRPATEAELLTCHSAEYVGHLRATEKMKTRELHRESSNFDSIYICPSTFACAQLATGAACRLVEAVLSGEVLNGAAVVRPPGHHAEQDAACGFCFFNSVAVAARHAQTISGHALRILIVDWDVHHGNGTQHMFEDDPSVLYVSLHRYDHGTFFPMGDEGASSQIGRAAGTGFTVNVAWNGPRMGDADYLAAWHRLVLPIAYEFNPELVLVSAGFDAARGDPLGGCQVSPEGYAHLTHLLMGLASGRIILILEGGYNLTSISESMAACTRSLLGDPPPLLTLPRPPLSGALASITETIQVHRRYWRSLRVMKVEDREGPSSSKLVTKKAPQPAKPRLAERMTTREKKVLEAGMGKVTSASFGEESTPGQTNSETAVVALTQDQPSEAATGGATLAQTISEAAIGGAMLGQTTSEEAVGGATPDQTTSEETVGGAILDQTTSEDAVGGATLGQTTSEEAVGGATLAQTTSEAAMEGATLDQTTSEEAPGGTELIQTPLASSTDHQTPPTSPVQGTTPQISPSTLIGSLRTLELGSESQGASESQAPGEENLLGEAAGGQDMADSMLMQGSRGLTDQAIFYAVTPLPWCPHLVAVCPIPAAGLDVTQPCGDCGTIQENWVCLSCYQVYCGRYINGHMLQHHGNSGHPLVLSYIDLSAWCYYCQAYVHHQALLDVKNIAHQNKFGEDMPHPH
UniProt P15682: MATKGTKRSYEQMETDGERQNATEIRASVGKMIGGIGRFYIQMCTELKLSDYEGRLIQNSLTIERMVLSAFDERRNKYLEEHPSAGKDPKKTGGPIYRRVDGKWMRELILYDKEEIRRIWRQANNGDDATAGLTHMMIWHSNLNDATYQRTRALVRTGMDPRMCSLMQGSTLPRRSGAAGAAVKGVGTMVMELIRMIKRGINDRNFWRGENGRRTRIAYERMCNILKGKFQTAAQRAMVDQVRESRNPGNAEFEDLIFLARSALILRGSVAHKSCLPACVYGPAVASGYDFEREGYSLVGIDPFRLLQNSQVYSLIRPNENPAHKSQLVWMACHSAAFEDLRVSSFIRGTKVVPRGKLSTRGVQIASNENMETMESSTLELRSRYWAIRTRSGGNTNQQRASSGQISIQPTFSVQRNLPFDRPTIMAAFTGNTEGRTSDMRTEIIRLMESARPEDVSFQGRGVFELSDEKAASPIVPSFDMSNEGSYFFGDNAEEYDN

No constants are given. Whether binding was seen depends on the method and setting. Binding seen in cells or lysates may run through a third protein. Some entries that bind do so weakly or less than the wild type.

The text below walks through data of publication PMC6364008.

On to “NP (nucleoprotein of influenza A virus strain WSN), expressed in 293T cells (from UniProt P15682 1-498)”, for which the binding entry was “binds”.
